# Laboratory results from PubChem BioAssay AID2685 (National Center for Advancing Translational Sciences (NCATS), 2010).
# Hit rate of the full screen: of about 320,000 compounds, about 2,100 (0.66%) were called active. Inconclusive means that the source gave no clear call. Such entries were picked first, then a sample of the others. The call rests on the fitted dose curve; in most records, active means well fitted inhibition curve with a large enough effect in the signal ratio, with a control signal flat (not every such curve was filed as active); inconclusive means small, poorly fitted or top-dose-only effect, or effect the other way, or a change in a side signal; inactive means flat fitted curve, though single readings scatter; the % refers to the signal ratio. Potencies of inconclusive entries are doubtful fits and often do not repeat.
# Assay: qHTS Assay for Lipid Storage Modulators in Drosophila S3 Cells
# Details: BODIPY lipid droplet fluorescence, 18-24 h, cells fed with added oleic acid; lipid storage change, negative = inhibition: at 46.1 µM (top of the series) unless noted
# Outline: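 Drosophila S3 cells loaded with oleic acid (400 uM, as added) and compounds at several concentrations; lipid droplets imaged by 488-nm laser-scanning cytometry, 500–530 nm intensity and object ratio to cell channel. Percent activity normalized to 20 uM Triacsin C.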
# On the % scale 0 is the no-effect control and ±100 the full control effect; potency means the concentration at half of the fitted maximal effect.
Compound,"lipid storage change, negative = inhibition",Potency,outcome
CCC(C)(C)NC(=O)CN(Cc1cccs1)C(=O)C(=O)Nc1ccc2c(c1)OCCO2,inactive: -17.7%,–,–
O=C1[C@@H]2C(Cc3ccc(O)cc3)NC3(C(=O)Nc4ccc(F)cc43)[C@@H]2C(=O)N1c1ccc(F)cc1 (some centres undefined),–,"inconclusive: 16.4 µM [falling, partial curve, poor fit]",–
CCOC(=O)C1=C(C)Nc2nc(SCC)[nH]c(=O)c2C1c1ccncc1 (centres undefined),inconclusive: -21.6%,–,–
CN(C(=O)COC(=O)c1cc(NS(=O)(=O)c2cc([N+](=O)[O-])ccc2Cl)ccc1O)C1CCCCC1,–,"inconclusive: 0.206 µM [activator, full curve, poor fit]",–
COCCCNCCC(CCC(C)C)c1ccc2c(c1)OCO2 (centres undefined),inconclusive: -22.1%,–,–
CCOC(=O)CSc1nc2cccnc2n1C,–,"inconclusive: 7.31 µM [falling, partial curve]",–
CCOc1ccc(CCNC(=O)COC(=O)c2cc(OC)cc(OC)c2)cc1OCC,–,"inconclusive: 23.1 µM [falling, single point]",–
CCC(C)(C)NC(=O)C(c1cccn1C)N(C(=O)Cn1nnc2ccccc21)c1ccc(OC)cc1OC (centres undefined),inconclusive: -24.7%,–,–
CC(=NCCc1ccccc1)C1=C(O)CSC1=O,–,"inconclusive: 3.66 µM [falling, partial curve]",–
CC(C)(C)NC(=O)Cn1c(-c2nonc2N)nc2ccccc21,inconclusive: 107%,–,–
COC(=O)/C=c1/sc2n(c1=O)CCN=2,inconclusive: -3.04%,–,–
COc1ccc(N(CC(=O)N2CCN(C)CC2)S(=O)(=O)c2ccccc2)cc1,inconclusive: -129%,–,–
COc1ccc(S(=O)(=O)NCC2CCCO2)c(Cl)c1Cl (centres undefined),–,"inconclusive: 0.82 µM [activator, full curve, poor fit]",–
CN(Cc1cn(C)nc1-c1ccccc1F)CC1CCN(Cc2ccccc2)CC1,inconclusive: 10.3%,–,–
O=C(CNC(=O)C1CCCCC1)NCc1ccco1,inconclusive: 5.2%,–,–
O=C(CSc1nnc(-c2ccccc2O)o1)NC1CCCCC1,–,"inconclusive: 0.58 µM [activator, single point]",–
COC(=O)C1=C(CN2CCc3ccccc32)NC(=O)NC1c1cc(C)ccc1C (centres undefined),–,"inconclusive: 0.231 µM [falling, full curve, poor fit]",–
CCCNC(=O)c1ccc(N2CCC3(CC2)CC(c2cccc(Br)c2)=NO3)c(NC(=O)c2ccco2)c1,inconclusive: -18.1%,–,–
NC(=O)c1c(NC(=O)c2c(F)cccc2F)sc2c1CCN(Cc1ccccc1)C2,inconclusive: -44.7%,–,–
Cc1ccc(CNC(=O)CCNC(=O)Cn2ccc3ccccc3c2=O)cc1,inconclusive: -44.1%,–,–
Nn1c(SCC(=O)Nc2ccc3c(c2)OCO3)nnc1-c1ccccc1,–,"inconclusive: 0.164 µM [activator, full curve]",–
CN1CCC(=O)N([C@H](CO)c2ccccc2)CC1,inconclusive: -20.2%,–,–
O=C(O)c1cn(C2CC2)c2cc(N3CCN(S(=O)(=O)c4ccc5c(c4)OCCO5)CC3)c(F)cc2c1=O,inconclusive: 130%,–,–
CCOC(=O)c1ccc(NC(=O)N2CCN(c3ccccc3OC)CC2)cc1,inconclusive: 21.6%,–,–
Cc1ccc(-c2noc(-c3ccccc3C(=O)N3CCN(C)CC3)n2)cc1,inconclusive: 24.9%,–,–

# Single values from the list:
# Value of Cc1ccc(CNC(=O)CCNC(=O)Cn2ccc3ccccc3c2=O)cc1 under lipid storage change, negative = inhibition: inconclusive: -44.1%
# Value of CCC(C)(C)NC(=O)C(c1cccn1C)N(C(=O)Cn1nnc2ccccc21)c1ccc(OC)cc1OC (centres undefined) under lipid storage change, negative = inhibition: inconclusive: -24.7%
# Value of COC(=O)C1=C(CN2CCc3ccccc32)NC(=O)NC1c1cc(C)ccc1C (centres undefined) under Potency: inconclusive: 0.231 µM [falling, full curve, poor fit]
# Value of CC(C)(C)NC(=O)Cn1c(-c2nonc2N)nc2ccccc21 under lipid storage change, negative = inhibition: inconclusive: 107%
# Value of COc1ccc(S(=O)(=O)NCC2CCCO2)c(Cl)c1Cl (centres undefined) under Potency: inconclusive: 0.82 µM [activator, full curve, poor fit]

# (further entries)

Compound,"lipid storage change, negative = inhibition",Potency,outcome
OC1(c2ccccc2)C/C(=N\n2cnnc2)C=C1c1ccccc1 (centres undefined),–,"inconclusive: 0.0046 µM [falling, full curve, poor fit]",–
O=c1c2ccccc2nc(COc2ccccc2)n1/N=C/c1cn[nH]c1-c1ccccc1,inconclusive: 22.7%,–,–
CCC(C(=O)NC1CC1)n1nc(C)c2c(C)n(-c3ccccc3)nc2c1=O (centres undefined),–,"inconclusive: 29.1 µM [activator, single point]",–
CCN(C(=O)c1cc2c(=O)[nH]c3ccc(C)cc3c2s1)c1ccccc1C,inconclusive: 9.25%,–,–
COCCN1Cc2cccc(C(=O)NC3CCCCCC3)c2C1=O,inconclusive: 15.2%,–,–
CN(C)CCCNC(=O)c1ccc(Cl)c(S(=O)(=O)N(C)c2ccccc2)c1,–,"inconclusive: 32.6 µM [activator, single point]",–
CCn1cc(C(=O)NCc2ccc(OC)cc2)c(=O)c2ccc(C)nc21,inconclusive: 6.13%,–,–
Cc1ccc(C)c(OCC(=O)NNC(=O)CCN2CCN(c3ccccc3)CC2)c1,–,"inconclusive: 0.0046 µM [activator, full curve, poor fit]",–
COc1ccccc1-c1noc(CCCC(=O)NC2CCCC2)n1,inconclusive: -124%,–,–
C=C(C)Cn1c(CN(C)Cc2ccccc2)nc2c1c(=O)n(C)c(=O)n2C,–,active: 0.92 µM,–
CCCS(=O)(=O)N1CCN(C(=O)c2ccc(-c3ccccc3)cc2)CC1,–,"inconclusive: 2.59 µM [activator, single point]",–
COc1ccccc1C(=O)OCC(=O)NC(=O)NC1CCCCC1,inconclusive,–,–
C=CCSc1nc2ccccc2n1C(=O)/C=C/c1ccc(OC)c(OC)c1,–,"inconclusive: 1.84 µM [falling, partial curve]",–
O=C(NCCCCNC(=O)c1ccccn1)c1ccccn1,inconclusive: -5.32%,–,–
COc1cccc(COC(=O)c2cc(S(=O)(=O)N3CCCCC3)ccc2N2CCOCC2)c1OC,inconclusive: 207%,–,–
COc1cc(C(=O)NCc2nnc(SCC(=O)N3CCCCC3)o2)cc(OC)c1OC,–,active: 18.4 µM,–
COc1ccc(CCNC(=O)c2coc3ccccc3c2=O)cc1,–,"inconclusive: 6.51 µM [activator, single point]",–
Cc1nn(-c2ccc(N3CCOCC3)nn2)c(C)c1CCC(=O)NCc1ccc(F)cc1,inactive: 10%,–,–
COc1ccc(NC(=O)C2=C(C)Nc3ncnn3C2c2ccccc2C(F)(F)F)c(OC)c1 (centres undefined),–,"inconclusive: 20.6 µM [activator, single point]",–
COc1ccc(CCNC(=O)c2ccc(CNS(=O)(=O)c3cc(C)ccc3C)cc2)cc1OC,–,"inconclusive: 10.3 µM [falling, partial curve]",–
CC(NC(=O)c1sc2cc([N+](=O)[O-])ccc2c1Cl)C(C)(C)C (centres undefined),inconclusive: -8.8%,–,–
O=C1CC(=C(c2ccccc2)c2ccccc2)C(=O)N1CCCN1CCN(c2cccc(Cl)c2)CC1,inconclusive: -1.61%,–,–
O=C(NCCNc1ccc([N+](=O)[O-])cc1)c1cccc2c(Br)cccc12,–,"inconclusive: 11.6 µM [activator, partial curve]",–
COc1ccc(OCc2nnc(SCC(N)=O)n2-c2ccccc2OC)cc1,inconclusive: 20%,–,–
COc1ccc2[nH]c(C(=O)Nc3cccc(C)n3)cc2c1,inconclusive: -16.7%,–,–

Compound,"lipid storage change, negative = inhibition",Potency,outcome
CC(C)(C)OC(=O)N[C@@H](COCc1ccccc1)C(=O)N[C@@H](CO)[C@H](O)[C@@H]1C[C@@H]1C(=O)NC1CCCCC1,inconclusive: -23.8%,–,–
CC1(C)Cc2c(cnn2-c2cccc(F)c2)C(NC(=O)c2csnn2)C1 (centres undefined),–,"inconclusive: 0.184 µM [falling, full curve, poor fit]",–
O=C(NCC1CC1)Nc1ccc(Cl)cc1,inconclusive: 406%,–,–
CN(C(=O)COC(=O)COc1ccc(Cl)cc1Cl)c1c(N)n(Cc2ccccc2)c(=O)[nH]c1=O,inconclusive,–,–
CN1CCN(C(=O)C2CCCN(S(=O)(=O)c3ccc(Br)cc3)C2)CC1 (centres undefined),inconclusive: 104%,–,–
COC(=O)c1nnn(-c2cccc(Cl)c2)c1C(=O)OC,inconclusive: 6.48%,–,–
Cc1cccc(-n2c(CNC(=O)c3ccc(S(=O)(=O)N4CCCC4)cc3)n[nH]c2=S)c1,inconclusive: -50%,–,–
CCc1cccc(C)c1NC(=O)CCCN1C(=O)NC(C)(C)C1=O,–,"inconclusive: 25.9 µM [falling, partial curve, poor fit]",–
O=C(O)C(C(=O)/C=C/c1ccco1)=C1SCCS1,inconclusive: -15.2%,–,–
COc1ccc(NS(=O)(=O)c2cc(OCC(N)=O)c(C)cc2Cl)cc1,inconclusive: 17.9%,–,–
Cc1cc2c(=O)n(C)c(SCC(=O)Nc3ccccc3)nc2s1,–,"inconclusive: 0.731 µM [activator, full curve, poor fit]",–
COc1cc(OC)cc(C(=O)Nc2ccc(N(C)C)c3ccccc23)c1,inconclusive: 0.974%,–,–
CCOc1ccc(NC(=O)CSc2nc(NS(=O)(=O)c3ccc(C)cc3)cc(=O)[nH]2)cc1,inconclusive: -44.4%,–,–
CSc1ccc(CN(C)CC(=O)Nc2c(F)cccc2F)cc1,–,"inconclusive: 0.146 µM [cytotoxic, full curve, poor fit]",–
CCOc1ccc2c(C)c(C(=O)O)oc2c1OCC,inconclusive: 38.3%,–,–
Cc1ccc(-n2nc3c(c2NC(=O)C2CCCC2)CS(=O)(=O)C3)cc1,–,–,inactive [at 46.1 µM]
CN(Cc1cccc(F)c1)C(=O)Cc1ccc(S(=O)(=O)N2CCOCC2)s1,inconclusive: 34.5%,–,–
Cc1ccc(C(=O)COC(=O)CNC(=O)c2cccs2)cc1C,–,"inconclusive: 29.1 µM [activator, single point]",–
Cc1ccc(CSc2ccc(S(=O)(=O)N3CCOCC3)cn2)cc1,inconclusive: 9.31%,–,–
Cc1nc(S/C(=C\c2ccc(OCc3ccccc3Cl)cc2)C(=O)O)n[nH]1,inconclusive: -0.135%,–,–
O=C(Nc1ccc(Cl)cc1)/C(=C/c1ccc([N+](=O)[O-])cc1)c1nc2ccccc2s1,inconclusive: -63.7% [cytotoxic],–,–
O=C1CN(c2ccc(Cl)cc2)C(=O)CN1NC(=S)Nc1ccc(Cl)cc1,inconclusive: -0.816%,–,–
O=C(Nc1ccn(-c2ccccc2)n1)c1ccc(Cl)cc1,inconclusive: 26.1%,–,–
N#CC1=C(N)OC2=C(C(=O)CCC2)[C@]12C(=O)N(CC(N)=O)c1ccccc12,inconclusive: 54.2%,–,–
